PubChem BioAssay AID2417 (National Center for Advancing Translational Sciences (NCATS), 2010)
The whole screen tested about 140,000 compounds, of which about 4,300 (3.1%) were called active. This list was built around the results that the source calls inconclusive (neither active nor inactive); the mix of calls is not that of the screen.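 The calls were made as follows: active = readout at or below -70, meaning at least 70% loss of cells showing the perinucleolar compartment, a nuclear body marking cancer cells; inconclusive = readout between -30 and a set limit; inactive = the rest.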

Assay: High Content Assay for Compounds that inhibit the Assembly of the Perinucleolar Compartment;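 also: plate controls were DMSO wells for no effect and camptothecin positive control wells for full effect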
Details: PC3M PTB-GFP, PNC prevalence imaging, 16 h; at 10 µM; hits give low values
How it was run: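 Read-out is percentage of cells bearing a perinucleolar compartment, from automated 20x imaging of fixed, Hoechst-stained PC3M PTB-GFP cells. Cells were seeded 4 h, then exposed 16 h to compound (23 nl of library stock) in duplicate plates.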

Structure (SMILES)	activity change (PNC), negative = inhibition
O=C(COc1ccccc1C(=O)N/N=C\c1ccc(O)c(O)c1)N/N=C/c1ccc(O)c(O)c1	inactive: -23%
CC1CCN(CCC(=O)Nc2ccc3c(c2)CCC3)CC1	inconclusive: -41.7%
CCN(CC)S(=O)(=O)c1cccc(NC(=O)C2SC(=Nc3ccc(C)cc3C)C(C(=O)NC(C)COC)=C2N)c1 (stereo unspecified)	inactive: 16.3%
O=C(NCC1OCCc2ccccc21)c1ccc(NC(=O)c2cccc(Br)c2)cc1 (stereo unspecified)	inactive: 32.8%
O=C(Nc1ccc(S(=O)(=O)NCc2cccnc2)cc1)c1ccccc1Cl	inconclusive: -30.2%
COc1ccc(CNC(=O)C2CCCN(S(=O)(=O)c3c(C)nn(C)c3C)C2)cc1 (stereo unspecified)	inconclusive: -47.3%
CN(C)S(=O)(=O)c1cccc(NC(=O)COC(=O)c2cccc(S(=O)(=O)N3CCc4ccccc4C3)c2)c1	active: -85.5%
C=CCn1c(C)cc(C(=O)CSc2nc3ccccc3[nH]2)c1C	inconclusive: -69.8%
O=C(/C=C/c1c(F)cccc1Cl)NCc1ccco1	inconclusive: -58.4%
O=C(CN1CCOCC1)Nc1c2c(nc3ccccc13)N(Cc1ccccc1)CC2	inconclusive: -36.8%
COc1cc(OC)c(/C=N/n2c(C)nnc2C)c(OC)c1	inconclusive: -55.4%
CC1CN(Cc2ccccc2)c2nc3c(c(=O)n(C)c(=O)n3C)n2C1 (stereo unspecified)	inactive: -4.69%
O=C1C2C3C=CC(C3)C2C(=O)N1CNc1ccccn1 (stereo unspecified)	inconclusive: -60.9%
COc1ccc(/C=C(/CC(=O)NCc2ccc(Cl)cc2)c2nc3ccccc3s2)cc1	inconclusive: -54.8%
COc1cc2cnncc2cc1OC	inconclusive: -36.5%
COc1ccc(S(=O)(=O)NCc2cccs2)cc1	inactive: 36.8%
N#CC(C#N)=NNc1ccc(S(=O)(=O)N2CCCC2)cc1	inconclusive: -30.5%
Cn1ccnc1SCC(=O)Nc1cc(S(=O)(=O)N2CCOCC2)ccc1Cl	inconclusive: -57.9%
O=C(CC(=O)c1ccccc1)Nc1ccc2c(c1)OCCO2	inconclusive: -40.8%
OC(COc1ccc2ccccc2c1)Cn1ccnc1 (stereo unspecified)	inconclusive: -36.2%
Cc1cc(C)c(-n2c(C)cc(/C=C3/NC(=O)NC3=O)c2C)c(C)c1	inactive: 68.2%
Cn1c(=O)[nH]c(=O)c2c1nc(CN1CCN(c3ccc(F)cc3)CC1)n2CCc1ccccc1	active: -100%
CC1CN(C(=O)/C(C#N)=C2\N=C(NC(=O)c3ccccc3Cl)c3ccccc32)CC(C)O1 (stereo unspecified)	inactive: 16.6%

Single entries from the entries so far:
Entry for CC1CN(C(=O)/C(C#N)=C2\N=C(NC(=O)c3ccccc3Cl)c3ccccc32)CC(C)O1 (stereo unspecified) under activity change (PNC), negative = inhibition: inactive: 16.6%
Entry for N#CC(C#N)=NNc1ccc(S(=O)(=O)N2CCCC2)cc1 under activity change (PNC), negative = inhibition: inconclusive: -30.5%
Entry for COc1cc2cnncc2cc1OC under activity change (PNC), negative = inhibition: inconclusive: -36.5%

The list continues.

Structure (SMILES)	activity change (PNC), negative = inhibition
O=S(=O)(c1ccc(Br)s1)N1CCc2ccccc2C1	active: -119%
O=C(Nc1ccc2c(c1)OCO2)c1ccccc1SCC(=O)N1CCCC1	inactive: 16.7%
O=C(OCc1cc(-c2ccccc2)no1)c1ccc2ccccc2n1	inconclusive: -47.3%
CC(C)N(Cc1nc(-c2ccccc2)no1)C(=O)c1ccc(Br)o1	inactive: -12.9%
CCCS(=O)(=O)N1CCN(c2ccccc2F)CC1	inconclusive: -47.6%
Cc1ccc(CCNC(=O)C23CN(Cc4ccccc4)CC2C(c2cccc([N+](=O)[O-])c2)=NO3)cc1 (stereo unspecified)	inconclusive: -53.2%
Cn1c(C(=O)NCCN2CCOCC2)cc2c(=O)n(C)c3ccccc3c21	inconclusive: -37.7%
O=C1CSC2=NCN(c3ccccc3)CN12	inconclusive: -61.2%
N#Cc1ccc(NC(=O)COC(=O)C2=COCCO2)cc1	inconclusive: -79.6%
O=C(O)c1ccc2c(c1)NC(=O)C(N1CCCC1)S2 (stereo unspecified)	inconclusive: -30.7%
COc1ccccc1OCC(=O)NCC1CCCCC1	inconclusive: -47.7%
CCOC(=O)c1c(-c2ccccc2)csc1NC(=O)c1ccc(S(=O)(=O)N2CCOCC2)cc1	inconclusive: -50.9%
COc1cc2cc(C(c3nnnn3C3CCCC3)N3CCc4ccccc43)c(=O)[nH]c2cc1OC (stereo unspecified)	inconclusive: -36.7%
COc1nccnc1NS(=O)(=O)c1ccc(NC(=S)NC(=O)c2ccc(F)cc2)cc1	inconclusive: -33.8%
CSCC[C@H](NC(=O)c1ccc(Cl)c(S(=O)(=O)N2CCCC2)c1)c1nc2ccccc2[nH]1	inconclusive: -51%
CCNC(=S)NNC(=O)c1cc(Br)cs1	inactive: 37%
O=C1C2C3C=CC(C3=C(c3ccccc3)c3ccccc3)C2C(=O)N1CCO (stereo unspecified)	inactive: 8.39%
O=C(Nc1nccs1)c1ccc(NC(=O)c2ccco2)cc1	inconclusive: -31.6%
Cc1cccc(Nc2nc3c(c(=O)n(C)c(=O)n3C)n2CC(O)CO)c1 (stereo unspecified)	inconclusive: -43.3%
FC(F)Sc1nnc(-c2cccs2)n1-c1ccccc1	active: -80.1%
Cc1ccc2ncccc2c1NS(=O)(=O)c1ccccc1	inactive: -16%
O=C(c1cc2ccccc2o1)c1cccs1	inactive: -6.61%
CCOC(=O)c1ccc(N2C(=O)CC(N3CCN(C(=O)c4ccco4)CC3)C2=O)cc1 (stereo unspecified)	inactive: -14.9%

Structure (SMILES)	activity change (PNC), negative = inhibition
COc1ccc(S(=O)(=O)NC(C)C(=O)O)cc1 (stereo unspecified)	inactive: 34.8%
CCCCCCn1cnc2c(c1=O)c1nc3ccccc3nc1n2/N=C/c1ccco1	inconclusive: -37.2%
O=C(CCc1nc2ccccc2s1)c1ccccc1	inactive: -1.49%
Cc1ccnc(NS(=O)(=O)c2ccccc2)n1	inconclusive: -53%
CCC(C)Nc1nc(-c2ccc3c(c2)NC(=O)CO3)cs1 (stereo unspecified)	inactive: -21.9%
Cc1nnsc1C(=O)NC1CCCCC1	inactive: -16.3%
O=C(CSCc1c(Cl)cccc1Cl)Nc1ccccc1C(=O)N1CCOCC1	inconclusive: -48.6%
C/C(=N\NC(=O)c1ccoc1C)c1cccnc1	active: -88.9%
Cc1ccc(-c2nnc(-c3ccc(NC(=O)c4ccco4)cc3)o2)cc1	inconclusive: -61.4%
FC(F)(F)c1cc(C(F)(F)F)c2ccc(N3CCN(c4ccccc4)CC3)nc2n1	inconclusive: -30.6%
O=C(CCn1c(=O)sc2ccccc21)NC1=NCCS1	inconclusive: -51.6%
COc1ccc(C(C)NC(=O)c2ccoc2C)cc1OC (stereo unspecified)	inconclusive: -40.7%
O=C(C[n+]1ccc(C(=O)N/N=C/c2ccc(Cl)cc2Cl)cc1)c1ccccc1	inactive: -3.12%
O=S(=O)(NC1CCCCC1Nc1ccccc1)c1ccccc1 (stereo unspecified)	inconclusive: -32.9%
CCOC(=O)/C=C1\Nc2ccccc2SC1=O	inconclusive: -46.2%
CCOc1ccc(/C=N/NC(=O)c2csc(C)c2C)c(OCC)c1	inconclusive: -37.1%
CC(=C/c1ccc(C(C)C)cc1)/C=N/NC(=O)CSc1ccccn1	inconclusive: -44.7%
O=C(CCCN1C(=O)/C(=C/c2ccco2)SC1=S)Nc1ccccc1	inconclusive: -57.2%
O=C(CSC1=NC(=O)C(Cc2ccccc2)C(=O)N1)Nc1ncccn1 (stereo unspecified)	inconclusive: -61.2%
O=c1cc(N2CCOCC2)c2ccccc2o1	inconclusive: -47.3%
O=C(N/N=C\c1ccc2c(c1)OCO2)c1ccco1	inconclusive: -44.5%
Cc1ccc(Nc2cc(-n3cccn3)ncn2)c(C)c1	inactive: -0.272%
O=C(COc1ccc(Cl)cc1Cl)N1CCCN(C(=O)COc2ccc(Cl)cc2Cl)CC1	inactive: 3.3%

4 of the compounds above, comma-delimited.
Structure (SMILES),"activity change (PNC), negative = inhibition"
O=C(CN1CCOCC1)Nc1c2c(nc3ccccc13)N(Cc1ccccc1)CC2,inconclusive: -36.8%
COc1cc(OC)c(/C=N/n2c(C)nnc2C)c(OC)c1,inconclusive: -55.4%
CC1CN(Cc2ccccc2)c2nc3c(c(=O)n(C)c(=O)n3C)n2C1 (stereo unspecified),inactive: -4.69%
O=C1C2C3C=CC(C3)C2C(=O)N1CNc1ccccn1 (stereo unspecified),inconclusive: -60.9%

Additional records follow.

Structure (SMILES)	activity change (PNC), negative = inhibition
CCOc1ccc(-n2c(Cc3cc(=O)[nH]c(=O)[nH]3)nnc2SCC(N)=O)cc1	active: -83.5%
CCCCCCOC(=O)Nc1ccc(S(=O)(=O)Nc2cccc([N+](=O)[O-])c2)cc1	inactive: -8.7%
O=C(NCc1ccco1)c1ccc(Oc2ccccc2)cc1	inconclusive: -45.9%
N#CC(c1ccc(Cl)cc1)c1nc2ccccc2nc1C(F)(F)F (stereo unspecified)	inconclusive: -44%
COc1ccc(C(CC(=O)O)NC(=O)c2sc3ccccc3c2Cl)cc1 (stereo unspecified)	inconclusive: -77.7%
Cc1ccc(S(=O)(=O)N(C)C)cc1NC(=O)[C@H](Cc1ccccc1)N1C(=O)c2ccccc2C1=O	inactive: 4.09%
COc1ccccc1-c1c(C)nn2c(N3CCN(Cc4ccccc4)CC3)cc(C)nc12	inconclusive: -54.8%
CSc1ccc(CNc2cccc3ccccc23)cc1	inconclusive: -48.5%
CC(C)CN1C(=O)/C(=C/c2cccs2)NC1=S	inactive: 9.86%
CN1CC(c2ccccc2Cl)C2(COc3ccccc3C2=O)C12C(=O)Nc1ccccc12 (stereo unspecified)	inconclusive: -51.6%
COc1cccc(C=Nc2ccccc2C(=O)Nc2ccccc2)c1O	active: -110%
CCCCNC(=O)C1CCN(c2nc(OC)nc(OC)n2)CC1	inactive: -27.6%
COCCOC(=O)/C=C1/NC(=O)CS1	inconclusive: -41.1%
O=C(N/N=C/C=C/c1ccc(Br)cc1)C(O)c1ccccc1 (stereo unspecified)	inconclusive: -53.6%
CCn1c(COc2ccc(Cl)cc2)nnc1SC1CCc2ccccc2C1=O (stereo unspecified)	inconclusive: -49.2%
CCOc1ccccc1NC1=NCC(=O)N1Cc1ccc(F)cc1	inconclusive: -37.6%
NS(=O)(=O)c1ccc(CCNC(=O)CSc2nc3ccsc3c(=O)n2C2CC2)cc1	inconclusive: -45.5%
CCOc1ccccc1N(C(=O)Nc1ccc(Cl)cc1)C1=NCCS1	inconclusive: -42.8%
CCOC(=O)c1sc(C)c2c(=O)n(CCCN3CCOCC3)cnc12	inconclusive: -43.5%
CSCC[C@H](NC(=O)OC(C)(C)C)c1nnc(SCC(=O)N(C)C)o1	inconclusive: -43.8%
CCNC(=S)Nc1cc(OCC)c(NC(=O)c2ccco2)cc1OCC	inconclusive: -62.4%
CCOc1ccc(NC(=O)C(C)Sc2nnnn2C)cc1 (stereo unspecified)	inconclusive: -72.7%
